In PubChem BioAssay AID1439 (NMMLSC, 2008):
Out of some 220,000 compounds screened, about 770 (0.35%) were called active. The shares of active, inactive and inconclusive entries below differ from those in the screen. No stated cut-off is given here; in the data, active means binding response below about 49% or above about 150%; inconclusive means no clear call, values can overlap the other calls; inactive means in between.

Chains of the proteins cited; added tags and fusions are not shown.
UniProt P09471, whole entry, looked up: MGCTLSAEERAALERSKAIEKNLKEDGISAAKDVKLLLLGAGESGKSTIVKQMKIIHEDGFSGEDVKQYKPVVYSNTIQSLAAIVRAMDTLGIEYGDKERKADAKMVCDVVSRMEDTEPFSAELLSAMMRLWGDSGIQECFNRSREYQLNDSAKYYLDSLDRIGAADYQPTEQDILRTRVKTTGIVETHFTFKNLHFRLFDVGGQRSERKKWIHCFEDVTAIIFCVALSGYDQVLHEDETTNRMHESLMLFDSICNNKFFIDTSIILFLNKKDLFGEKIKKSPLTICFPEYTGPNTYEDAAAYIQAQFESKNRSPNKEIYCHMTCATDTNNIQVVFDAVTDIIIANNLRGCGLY

target: Guanine nucleotide-binding protein G(o) subunit alpha (Homo sapiens) (UniProt P09471); assay: RGS7-Galphao binding modulators, primary screen, biochemical, multiplexed bead flow cytometry (AID 1439); details: at 10 µM, actives lie on both sides;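 further: fluorescent Galphao held in activated GDP-AlF4 state binding bead-coupled RGS7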

Row | Structure (SMILES) | binding response (% of control)
1 | CC/C(=N/NC(=O)c1ccccc1)c1ccc(OCCN2CCOCC2)cc1 | active: 190% [activator]
2 | Cc1ccc(C(=O)NCCN2C3=NC[C@H](C(C)C)N3C[C@H]2Cc2ccc(O)cc2)cc1Br | inactive: 102%
3 | Cc1noc(C)c1-c1nc(CS(=O)(=O)c2ccc(Cl)cc2)no1 | inconclusive: 72.7%
4 | COc1ccc(CCNC(=O)C2CC(c3ccccc3F)=NO2)cc1 (centres undefined) | inconclusive: 98.1%
5 | COc1cc(C2C3=C(Nc4nc(N)[nH]c(=O)c42)c2ccccc2C3=O)ccc1O (centres undefined) | inconclusive: 65.2%
6 | O=C(Nc1cc(S(=O)(=O)N2CCOCC2)ccc1N1CCCC1)c1cc(=O)[nH]c2ccccc12 | inconclusive: 100%
7 | COc1ccc(CC(=O)O/N=C(\N)c2ccccn2)cc1 | inconclusive: 125%
8 | Cc1onc(-c2c(Cl)cccc2Cl)c1NC(=O)NN(C)C | inconclusive: 93.6%
9 | Cc1cc(C)c2c(N)c(C(=O)C(C)(C)C)sc2n1 | inconclusive: 76.4%
10 | CSc1nnc(C)c(/C=C/Nc2ccc(F)cc2F)n1 | inconclusive: 109%
11 | CCSc1nnc(NC(=O)CCCOc2ccc(C)cc2)s1 | inactive: 98.2%
12 | Cc1ccnc2nc(C(=O)OCC(=O)N3CCc4ccccc43)nn12 | inconclusive: 98.7%
13 | CCCn1cnc2cc(NCc3cccs3)ccc21 | inconclusive: 79.7%
14 | CCOc1ccc(C(=O)NC(=S)Nc2ccc(NC(=O)c3ccco3)c(C)c2)cc1[N+](=O)[O-] | inactive: 101%
15 | COC(=O)C1(C(C[N+](=O)[O-])c2ccc(C)cc2)C(=O)NCC1c1ccco1 (centres undefined) | inconclusive: 137%
16 | Cc1ccc(C(C(=O)NCC2CCCO2)N(Cc2ccccc2)C(=O)c2ccc(-c3ccccc3)[nH]2)o1 (centres undefined) | inactive: 94.1%
17 | COc1ccc(S(=O)(=O)Nc2nnc(Cc3ccc(OC)c(OC)c3)s2)cc1 | inactive: 97.2%
18 | Nc1ncc(N=Nc2cc(C(=O)O)ccc2Cl)s1 | inconclusive: 106%
19 | Cc1c(Cl)cccc1NC(=O)C1Cc2ccccc2CN1C(=O)c1ccccc1 (centres undefined) | inactive: 96.9%
20 | COc1ccc(CNC(=O)N[C@H](C(=O)O)C(C)C)cc1OC | inconclusive: 132%
21 | CCOc1ccc(NC(=O)CC2SC(N)=NC2=O)c([N+](=O)[O-])c1 (centres undefined) | inconclusive: 100%
22 | N#Cc1cc(C(=O)c2ccccc2O)cn(-c2nccs2)c1=O | inactive: 65.7%

Row | Structure (SMILES) | binding response (% of control)
23 | COc1ccc(-c2csc(NC(=O)CSc3ncn[nH]3)n2)cc1OC | inconclusive: 98.6%
24 | COc1cccc(OCCNC(=O)Nc2cc(F)c(F)cc2Cl)c1 | inconclusive: 73.3%
25 | COc1cc(C(=O)Nn2c(O)c(C3=c4ccccc4=NC3=O)sc2=S)ccc1O | inconclusive: 88%
26 | CSC1=C(C#N)C(=O)NC(c2ccc(Cl)cc2)S1 (centres undefined) | inconclusive: 56.7%
27 | CCN(CC)c1ccc(NS(=O)(=O)c2ccc(OC)cc2)cc1 | inactive: 95.8%
28 | CC(C)C(C)(C#N)NC(=O)CSc1nc(C2CCCCC2)n(-c2ccccc2)n1 (centres undefined) | inactive: 104%
29 | COc1cccc(N2C(=O)[C@H]3C(C(=O)c4cnccn4)=NN[C@H]3C2=O)c1 | inconclusive: 67.5%
30 | CCOC(=O)c1cn2nc(Oc3cccc(C(F)(F)F)c3)ccc2n1 | inconclusive: 66.1%
31 | O=C(CNCCC1=CCCCC1)Nc1ccccc1N1CCCCCC1 | inconclusive: 91.3%
32 | CC(C)NC(=O)c1ccccc1NC(=O)Cc1ccc([N+](=O)[O-])cc1 | inconclusive: 66.8%
33 | CC1CCN(CCCn2c(SCC(=O)Nc3ccccc3Cl)nc3ccccc3c2=O)CC1 | inactive: 127%
34 | CC(=O)Nc1ccc(NC(=O)C2CC(=O)N(c3cccc(Cl)c3)C2)cc1 (centres undefined) | inconclusive: 88.2%
35 | CN1CCN(c2ncc(CN3C(=O)c4ccccc4C3=O)s2)CC1 | inconclusive: 107%
36 | O=C(Nc1ccc(F)c(Cl)c1)Nc1csc2ccccc12 | inconclusive: 95.2%
37 | Cc1cc(C)c2c(n1)sc1c(N3CCN(C)CC3)ncnc12 | inconclusive: 66.6%
38 | CCc1cccc(CC)c1NC(=O)CSc1nc2ccc(N3C(=O)C4C(C3=O)[C@H]3C=C[C@@H]4C3)cc2s1 (some centres undefined) | inactive: 103%
39 | CCCC/C(O)=C1\C(=O)CC(C)(C)CC1=NCCCCCC(=O)O | inactive: 103%
40 | COc1ccc(C(CC(=O)Nc2nccs2)n2cccc2)cc1 (centres undefined) | inactive: 107%
41 | O=C(c1ccco1)N1N=C(c2ccc(Cl)cc2)CC1(O)C(F)(F)F (centres undefined) | inconclusive: 121%
42 | CC(CN1CCCCCC1)C(=O)NN (centres undefined) | inconclusive: 113%
43 | O=C(OCC(=O)N1CCN(C(=O)c2ccco2)CC1)C1=COCCO1 | inactive: 138%
44 | O=C(Cc1cccs1)N(CC1CCCO1)C1(C(=O)NC2CCCC2)CCCCC1 (centres undefined) | inactive: 98.8%

Quoted from the listing, three compounds:
Row | Structure (SMILES) | binding response (% of control)
19 | Cc1c(Cl)cccc1NC(=O)C1Cc2ccccc2CN1C(=O)c1ccccc1 (centres undefined) | inactive: 96.9%
20 | COc1ccc(CNC(=O)N[C@H](C(=O)O)C(C)C)cc1OC | inconclusive: 132%
21 | CCOc1ccc(NC(=O)CC2SC(N)=NC2=O)c([N+](=O)[O-])c1 (centres undefined) | inconclusive: 100%
